Assay results from the supplement of paper PMC10849652.
This is one part of the list.

By UniProt entry, the sequences of proteins in these tests, tags left out. Where a name states a change or a piece, a line headed by the entry shows the natural chain unless it says otherwise.
UniProt Q15554: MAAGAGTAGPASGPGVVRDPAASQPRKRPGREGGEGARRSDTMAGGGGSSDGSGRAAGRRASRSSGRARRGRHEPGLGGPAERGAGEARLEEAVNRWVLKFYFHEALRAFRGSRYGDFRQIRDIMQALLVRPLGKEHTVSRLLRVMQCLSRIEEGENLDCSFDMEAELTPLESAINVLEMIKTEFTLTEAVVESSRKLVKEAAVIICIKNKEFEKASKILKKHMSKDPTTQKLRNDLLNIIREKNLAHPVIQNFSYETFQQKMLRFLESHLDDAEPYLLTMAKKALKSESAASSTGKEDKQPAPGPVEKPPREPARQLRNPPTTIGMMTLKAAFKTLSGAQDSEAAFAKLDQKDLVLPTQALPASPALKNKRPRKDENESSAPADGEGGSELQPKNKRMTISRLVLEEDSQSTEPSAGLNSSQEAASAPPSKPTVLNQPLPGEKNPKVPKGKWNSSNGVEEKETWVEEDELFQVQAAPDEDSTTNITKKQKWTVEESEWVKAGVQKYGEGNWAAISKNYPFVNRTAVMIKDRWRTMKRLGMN
UniProt Q96MV1: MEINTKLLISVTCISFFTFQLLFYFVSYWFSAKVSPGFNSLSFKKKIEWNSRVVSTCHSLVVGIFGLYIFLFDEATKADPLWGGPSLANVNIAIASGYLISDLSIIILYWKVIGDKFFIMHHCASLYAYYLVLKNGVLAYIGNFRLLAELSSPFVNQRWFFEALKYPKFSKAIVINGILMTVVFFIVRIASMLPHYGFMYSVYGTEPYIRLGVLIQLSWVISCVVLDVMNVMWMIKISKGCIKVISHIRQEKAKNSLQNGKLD
UniProt O14776: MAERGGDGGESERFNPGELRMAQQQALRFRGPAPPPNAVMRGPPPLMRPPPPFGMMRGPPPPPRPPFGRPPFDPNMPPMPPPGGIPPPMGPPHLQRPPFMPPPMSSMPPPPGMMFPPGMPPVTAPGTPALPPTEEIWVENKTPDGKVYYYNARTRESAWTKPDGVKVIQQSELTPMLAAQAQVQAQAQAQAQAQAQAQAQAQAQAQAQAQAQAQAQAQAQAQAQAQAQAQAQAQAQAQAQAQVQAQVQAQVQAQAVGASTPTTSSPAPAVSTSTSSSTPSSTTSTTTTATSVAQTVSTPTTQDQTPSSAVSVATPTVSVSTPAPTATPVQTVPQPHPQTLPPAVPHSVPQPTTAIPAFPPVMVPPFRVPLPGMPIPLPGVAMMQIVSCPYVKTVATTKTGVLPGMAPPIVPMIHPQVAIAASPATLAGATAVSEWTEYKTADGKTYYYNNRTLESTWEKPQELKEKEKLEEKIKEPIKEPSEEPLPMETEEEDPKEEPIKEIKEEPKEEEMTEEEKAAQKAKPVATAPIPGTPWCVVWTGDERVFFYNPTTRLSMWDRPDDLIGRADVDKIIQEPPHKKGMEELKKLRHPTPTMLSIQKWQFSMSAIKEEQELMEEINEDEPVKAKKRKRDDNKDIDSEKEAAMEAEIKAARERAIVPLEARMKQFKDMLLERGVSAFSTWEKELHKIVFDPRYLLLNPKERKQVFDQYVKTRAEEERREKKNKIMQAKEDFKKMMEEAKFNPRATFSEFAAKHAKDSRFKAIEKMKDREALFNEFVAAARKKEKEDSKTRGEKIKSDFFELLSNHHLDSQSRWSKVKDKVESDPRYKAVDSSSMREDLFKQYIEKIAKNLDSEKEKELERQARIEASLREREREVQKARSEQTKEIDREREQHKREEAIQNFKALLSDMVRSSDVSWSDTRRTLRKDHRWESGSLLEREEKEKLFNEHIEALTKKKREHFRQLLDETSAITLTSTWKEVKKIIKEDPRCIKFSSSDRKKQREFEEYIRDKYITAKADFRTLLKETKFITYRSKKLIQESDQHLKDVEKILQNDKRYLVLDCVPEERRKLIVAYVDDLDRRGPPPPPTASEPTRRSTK
UniProt Q8WUA7: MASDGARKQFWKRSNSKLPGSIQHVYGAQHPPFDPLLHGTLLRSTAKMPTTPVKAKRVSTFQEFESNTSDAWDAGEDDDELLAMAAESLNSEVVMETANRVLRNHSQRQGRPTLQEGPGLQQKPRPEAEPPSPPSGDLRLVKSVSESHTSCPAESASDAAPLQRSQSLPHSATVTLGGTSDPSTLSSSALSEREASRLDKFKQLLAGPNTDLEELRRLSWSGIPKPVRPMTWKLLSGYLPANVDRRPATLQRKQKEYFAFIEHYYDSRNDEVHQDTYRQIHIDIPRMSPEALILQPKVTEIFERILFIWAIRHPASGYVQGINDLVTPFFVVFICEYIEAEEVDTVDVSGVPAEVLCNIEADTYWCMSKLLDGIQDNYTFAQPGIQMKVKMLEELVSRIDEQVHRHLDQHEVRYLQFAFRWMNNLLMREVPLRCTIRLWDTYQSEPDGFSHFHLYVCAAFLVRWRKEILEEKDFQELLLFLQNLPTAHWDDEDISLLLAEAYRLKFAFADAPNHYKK
UniProt P62380: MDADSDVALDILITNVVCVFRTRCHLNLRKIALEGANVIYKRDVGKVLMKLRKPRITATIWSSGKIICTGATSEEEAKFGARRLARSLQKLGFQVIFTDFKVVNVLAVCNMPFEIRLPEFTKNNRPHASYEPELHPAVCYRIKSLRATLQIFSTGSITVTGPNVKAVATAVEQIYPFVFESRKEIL
UniProt P04183: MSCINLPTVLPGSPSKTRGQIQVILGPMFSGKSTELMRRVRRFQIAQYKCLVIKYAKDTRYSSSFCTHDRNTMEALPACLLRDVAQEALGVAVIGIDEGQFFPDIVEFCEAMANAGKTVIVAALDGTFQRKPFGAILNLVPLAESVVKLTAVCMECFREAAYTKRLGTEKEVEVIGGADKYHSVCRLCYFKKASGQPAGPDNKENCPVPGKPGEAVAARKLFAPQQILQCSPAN
UniProt P31483: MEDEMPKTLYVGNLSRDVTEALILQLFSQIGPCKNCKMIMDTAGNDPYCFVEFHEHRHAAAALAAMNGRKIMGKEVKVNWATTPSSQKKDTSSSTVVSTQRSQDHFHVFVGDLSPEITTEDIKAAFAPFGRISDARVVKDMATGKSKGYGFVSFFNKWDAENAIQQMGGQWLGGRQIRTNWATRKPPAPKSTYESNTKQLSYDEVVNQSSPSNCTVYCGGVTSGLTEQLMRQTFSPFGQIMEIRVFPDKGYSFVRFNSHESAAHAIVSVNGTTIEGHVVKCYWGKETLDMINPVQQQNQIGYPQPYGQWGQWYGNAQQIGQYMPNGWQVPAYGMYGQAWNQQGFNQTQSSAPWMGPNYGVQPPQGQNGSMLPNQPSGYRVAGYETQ
UniProt Q13769: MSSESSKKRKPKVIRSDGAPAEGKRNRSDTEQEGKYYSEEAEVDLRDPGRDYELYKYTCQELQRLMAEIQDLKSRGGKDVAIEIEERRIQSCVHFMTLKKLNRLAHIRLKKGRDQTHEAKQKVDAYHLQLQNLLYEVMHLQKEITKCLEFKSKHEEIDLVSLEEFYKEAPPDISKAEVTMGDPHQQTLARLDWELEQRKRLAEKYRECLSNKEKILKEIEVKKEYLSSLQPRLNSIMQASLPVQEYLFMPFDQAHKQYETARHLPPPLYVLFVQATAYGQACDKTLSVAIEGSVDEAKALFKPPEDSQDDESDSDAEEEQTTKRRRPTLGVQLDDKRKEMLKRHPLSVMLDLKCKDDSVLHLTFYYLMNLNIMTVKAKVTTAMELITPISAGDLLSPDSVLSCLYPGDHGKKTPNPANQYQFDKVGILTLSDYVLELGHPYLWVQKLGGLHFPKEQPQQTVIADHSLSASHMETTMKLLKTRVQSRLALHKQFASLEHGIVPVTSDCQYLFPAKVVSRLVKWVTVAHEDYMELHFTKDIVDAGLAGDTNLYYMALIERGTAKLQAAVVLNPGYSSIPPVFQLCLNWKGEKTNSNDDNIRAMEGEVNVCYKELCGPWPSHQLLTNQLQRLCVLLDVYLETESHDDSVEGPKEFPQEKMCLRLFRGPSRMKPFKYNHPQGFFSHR
UniProt Q9BV44: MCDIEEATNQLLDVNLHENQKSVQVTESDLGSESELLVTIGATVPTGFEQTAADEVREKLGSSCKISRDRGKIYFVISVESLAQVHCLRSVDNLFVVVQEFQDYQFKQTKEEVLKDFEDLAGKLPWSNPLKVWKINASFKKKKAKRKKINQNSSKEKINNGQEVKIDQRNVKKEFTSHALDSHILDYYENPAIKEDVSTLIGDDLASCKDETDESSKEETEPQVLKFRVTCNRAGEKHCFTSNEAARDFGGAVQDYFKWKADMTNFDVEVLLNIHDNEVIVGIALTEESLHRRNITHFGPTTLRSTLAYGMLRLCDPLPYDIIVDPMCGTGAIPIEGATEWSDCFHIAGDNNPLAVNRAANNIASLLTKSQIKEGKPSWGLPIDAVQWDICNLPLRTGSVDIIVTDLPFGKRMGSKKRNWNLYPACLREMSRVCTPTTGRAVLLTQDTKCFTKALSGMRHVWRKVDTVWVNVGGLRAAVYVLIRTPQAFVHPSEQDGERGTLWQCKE
UniProt P01033: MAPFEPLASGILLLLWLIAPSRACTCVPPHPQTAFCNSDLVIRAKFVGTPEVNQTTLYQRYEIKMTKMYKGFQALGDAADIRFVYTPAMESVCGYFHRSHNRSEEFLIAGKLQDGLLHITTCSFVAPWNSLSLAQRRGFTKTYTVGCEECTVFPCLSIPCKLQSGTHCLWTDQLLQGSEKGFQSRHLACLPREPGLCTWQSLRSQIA
UniProt Q9Y4R8, whole entry, looked up: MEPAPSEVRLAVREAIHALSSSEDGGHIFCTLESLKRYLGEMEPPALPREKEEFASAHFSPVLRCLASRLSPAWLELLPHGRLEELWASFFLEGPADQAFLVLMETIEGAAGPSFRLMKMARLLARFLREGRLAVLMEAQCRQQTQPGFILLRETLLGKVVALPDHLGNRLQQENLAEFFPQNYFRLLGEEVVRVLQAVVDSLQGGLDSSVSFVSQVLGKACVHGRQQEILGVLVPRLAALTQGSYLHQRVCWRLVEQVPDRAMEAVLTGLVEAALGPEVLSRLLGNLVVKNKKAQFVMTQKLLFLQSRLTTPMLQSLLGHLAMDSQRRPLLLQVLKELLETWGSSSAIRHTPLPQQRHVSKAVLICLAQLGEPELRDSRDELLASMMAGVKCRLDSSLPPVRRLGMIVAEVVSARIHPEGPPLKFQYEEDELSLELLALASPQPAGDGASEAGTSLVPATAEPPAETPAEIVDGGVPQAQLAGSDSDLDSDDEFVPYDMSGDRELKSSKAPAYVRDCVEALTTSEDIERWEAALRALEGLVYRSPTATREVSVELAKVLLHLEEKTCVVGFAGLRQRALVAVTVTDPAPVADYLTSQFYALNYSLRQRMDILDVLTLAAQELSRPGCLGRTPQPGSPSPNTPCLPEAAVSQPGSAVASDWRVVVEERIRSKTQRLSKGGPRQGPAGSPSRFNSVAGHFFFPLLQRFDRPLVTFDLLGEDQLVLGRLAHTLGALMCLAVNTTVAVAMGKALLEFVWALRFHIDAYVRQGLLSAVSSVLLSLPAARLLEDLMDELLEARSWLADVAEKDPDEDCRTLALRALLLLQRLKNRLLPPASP
UniProt Q9BVW5: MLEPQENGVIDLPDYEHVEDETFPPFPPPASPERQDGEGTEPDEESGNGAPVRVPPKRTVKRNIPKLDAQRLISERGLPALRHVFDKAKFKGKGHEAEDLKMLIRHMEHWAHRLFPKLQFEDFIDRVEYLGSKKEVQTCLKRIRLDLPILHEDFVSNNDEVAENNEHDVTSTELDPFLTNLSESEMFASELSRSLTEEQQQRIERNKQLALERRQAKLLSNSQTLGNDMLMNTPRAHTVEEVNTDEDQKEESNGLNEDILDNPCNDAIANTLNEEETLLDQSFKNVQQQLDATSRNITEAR
UniProt Q9UGI8: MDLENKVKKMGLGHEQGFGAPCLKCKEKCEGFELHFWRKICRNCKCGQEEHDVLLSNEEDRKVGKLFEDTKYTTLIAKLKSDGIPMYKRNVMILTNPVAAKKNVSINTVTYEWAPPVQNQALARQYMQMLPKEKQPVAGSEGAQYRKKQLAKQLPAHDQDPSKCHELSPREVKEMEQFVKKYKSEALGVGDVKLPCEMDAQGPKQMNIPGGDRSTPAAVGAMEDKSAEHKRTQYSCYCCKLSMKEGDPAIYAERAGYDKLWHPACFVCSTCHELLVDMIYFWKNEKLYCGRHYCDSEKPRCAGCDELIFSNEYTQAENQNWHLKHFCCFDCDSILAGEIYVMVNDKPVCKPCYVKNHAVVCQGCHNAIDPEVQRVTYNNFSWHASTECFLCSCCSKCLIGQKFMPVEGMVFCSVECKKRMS
UniProt Q9BSF4: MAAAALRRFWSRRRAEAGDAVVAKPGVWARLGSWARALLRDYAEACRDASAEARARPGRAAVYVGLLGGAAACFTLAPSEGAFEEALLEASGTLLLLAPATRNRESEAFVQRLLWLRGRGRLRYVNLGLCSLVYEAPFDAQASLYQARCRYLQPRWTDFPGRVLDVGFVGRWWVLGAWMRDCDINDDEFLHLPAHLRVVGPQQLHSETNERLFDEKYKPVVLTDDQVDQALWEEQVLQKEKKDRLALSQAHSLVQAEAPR
UniProt O60220: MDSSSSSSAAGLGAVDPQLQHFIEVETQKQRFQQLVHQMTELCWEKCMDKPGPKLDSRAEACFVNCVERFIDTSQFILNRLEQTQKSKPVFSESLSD

How the values were obtained:
Assay in all cases: log2 fold change, soluble protein after heating vs DMSO (PISA); higher = thermal stabilisation; K562 cells, 10 uM, 30 min; active = over 0.2 and 3.5 SD of the protein, either way, in both replicates (recomputed)
[1] = compound: CS(=O)(=O)c1ccc(-c2cnc(N)c(C(=O)Nc3ccccc3)n2)cc1
Outline: (§1)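 For each measurement, 10 μM compound was applied for 30 min to K562 cells at 2×10^6 cells/mL. Aliquots were heated for 3 min across 48°C-58°C, pooled, and extracted in PBS with 0.5% NP-40 at 4°C; the supernatant after 21,000xg for 90 min was soluble protein. This was quantified by TMTpro 16plex LC-MS/MS with channel sums equalised, and thermal stability was reported relative to control samples from duplicates, on a log2 fold-change scale.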

[2] = compound: C[C@@H](Oc1cc(-c2cnn(C3CCNCC3)c2)cnc1N)c1c(Cl)ccc(F)c1Cl [crizotinib]
Outline: as §1

[3] = compound: C[C@@H]1COCCN1C2=NC(=NC(=C2)C3(CC3)S(=O)(=O)C)C4=C5C=CNC5=CC=C4
Outline: as §1

[4] = compound: C[C@H](C1=CC=C(C=C1)C(=O)NC2=C3C=CNC3=NC=C2)N
Outline: as §1

[5] = compound: C[C@H](Nc1ncnc2nc[nH]c12)c1cc2cccc(Cl)c2c(=O)n1-c1ccccc1 [duvelisib]
Outline: as §1

[6] = compound: Cc1cc(Nc2cc(CN3CCOCC3)c3nc(C)c(Cc4ccc(Cl)cc4F)n3n2)n[nH]1 [gandotinib]
Outline: as §1

[7] = compound: Cc1cc(Nc2cc(N3CCN(C)CC3)nc(Sc3ccc(NC(=O)C4CC4)cc3)n2)n[nH]1 [tozasertib]
Outline: as §1

[8] = compound: Cc1cc(SCc2sc(-c3ccc(C(F)(F)F)cc3)nc2C)ccc1OCC(=O)O
Outline: as §1

[9] = compound: Cc1ccc(-n2nc(C(C)(C)C)cc2NC(=O)Nc2ccc(OCCN3CCOCC3)c3ccccc23)cc1 [doramapimod]
Outline: as §1

[10] = compound: Cc1ccc(C(=O)N(CCCN)[C@@H](c2nc3cc(Cl)ccc3c(=O)n2Cc2ccccc2)C(C)C)cc1 [ispinesib]
Outline: as §1

[11] = compound: Cc1ccc(NC(=O)c2ccc(CN3CC[C@H](N(C)C)C3)c(C(F)(F)F)c2)cc1Nc1nccc(-c2cncnc2)n1 [bafetinib]
Outline: as §1

[12] = compound: Cc1cccc(CC(=O)N2CCc3c2ccc(-c2cn(C)c4ncnc(N)c24)c3F)n1
Outline: as §1

[13] = compound: Cc1cn(-c2cc(NC(=O)c3ccc(C)c(Nc4nccc(-c5cccnc5)n4)c3)cc(C(F)(F)F)c2)cn1 [nilotinib]
Outline: as §1

[14] = compound: Cc1nc(Nc2n[nH]c3c2CN(C(=O)N[C@H](CN(C)C)c2ccccc2)C3(C)C)c2sccc2n1
Outline: as §1

[15] = compound: Cc1nc(Nc2ncc(C(=O)Nc3c(C)cccc3Cl)s2)cc(N2CCN(CCO)CC2)n1 [dasatinib]
Outline: as §1

[16] = compound: Cc1ncc(-c2ccnc(Nc3ccc(S(C)(=O)=O)cc3)n2)n1C(C)C
Outline: as §1

[17] = compound: Cn1cc(-c2ccc3c(c2)CCN3C(=O)Cc2cccc(C(F)(F)F)c2)c2c(N)ncnc21
Outline: as §1

[18] = compound: Cn1cc(-c2ccc3nnc(C(F)(F)c4ccc5ncccc5c4)n3n2)cn1
Outline: as §1

[19] = compound: Cn1cncc1[C@@](N)(c1ccc(Cl)cc1)c1ccc2c(c1)c(-c1cccc(Cl)c1)cc(=O)n2C [tipifarnib]
Outline: as §1

[20] = compound: FC(F)(F)c1ccc(/C=C/c2nc(COc3ccc(CCCCn4ccnn4)cc3)co2)cc1 [mubritinib]
Outline: as §1

Measured: log2 fold change

TERF2 (UniProt Q15554)
inactive: [1] -0.017 | [2] -0.019 | [3] 0.255 | [4] 0.104 | [5] -0.333 | [6] 0.015 | [7] 0.016 | [8] -0.065 | [9] 0.025 | [10] -0.049 | [11] 0.031 | [12] -0.009 | [13] -0.024 | [14] -0.12 | [15] -0.157 | [16] -0.045 | [17] -0.071 | [18] -0.151 | [19] 0.006 | [20] -0.172

TLCD4 (UniProt Q96MV1)
inactive: [1] 0.01 | [2] -0.009 | [3] -0.043 | [4] -0.098 | [5] 0.005 | [6] 0.12 | [7] 0.028 | [8] 0.034 | [9] 0.051 | [10] 0.075 | [11] -0.003 | [12] -0.016 | [13] 0.011 | [14] 0.018 | [15] 0.014 | [16] 0.064 | [17] -0.067 | [18] -0.09 | [19] 0.038 | [20] -0.001

TCERG1 (UniProt O14776)
inactive: [1] 0.079 | [2] 0.073 | [3] 0.125 | [4] -0.063 | [6] -0.057 | [8] 0.179 | [9] -0.079 | [10] 0.015 | [11] 0.03 | [12] 0.077 | [13] -0.093 | [14] -0.24 | [15] -0.26 | [16] 0.02 | [17] 0.088 | [18] 0.07 | [19] -0.097 | [20] 0.183

TBC1D22A (UniProt Q8WUA7)
inactive: [1] -0.014 | [2] 0.057 | [3] -0.017 | [4] -0.084 | [5] 0.023 | [6] -0.022 | [7] -0.021 | [8] 0.013 | [9] 0.029 | [10] -0.004 | [11] -0.078 | [12] 0.05 | [13] 0.019 | [14] -0.039 | [15] 0.009 | [16] 0.001 | [17] 0.027 | [18] 0.035 | [19] 0.042 | [20] 0.039

TBPL1 (UniProt P62380)
inactive: [1] 0.037 | [2] -0.017 | [3] 0.185 | [4] -0.124 | [5] 0.043 | [6] -0.172 | [7] 0.015 | [8] 0.038 | [9] -0.073 | [10] 0.004 | [11] -0.036 | [12] -0.017 | [13] -0.069 | [14] -0.025 | [15] -0.136 | [16] -0.022 | [17] 0.05 | [18] 0.053 | [19] -0.115 | [20] -0.026

TKT, A0A0B4J1R6
inactive: [1] -0.013 | [2] 0.116 | [3] 0.151 | [4] 0.199 | [5] 0.015 | [7] -0.12 | [8] -0.018 | [9] 0.077 | [10] -0.273 | [11] 0.078 | [13] 0.075 | [14] -0.003 | [15] 0.117 | [16] -0.033 | [17] -0.058 | [18] 0.152 | [19] 0.204 | [20] 0.042

TK1 (UniProt P04183)
inactive: [1] -0.046 | [2] 0.011 | [3] -0.008 | [4] -0.097 | [6] -0.055 | [8] -0.03 | [9] -0.013 | [10] 0.017 | [11] -0.04 | [12] -0.028 | [13] -0.002 | [14] 0.028 | [15] 0.032 | [16] -0.036 | [17] 0.015 | [18] 0 | [19] 0 | [20] 0.056

TIA1 (UniProt P31483)
inactive: [1] 0.005 | [2] -0.021 | [3] 0.124 | [4] -0.072 | [5] 0.024 | [6] 0.03 | [7] -0.024 | [8] 0.043 | [9] -0.019 | [10] 0.013 | [11] -0.068 | [12] 0.071 | [13] -0.004 | [14] 0.05 | [15] -0.025 | [16] 0.053 | [17] 0.056 | [18] 0.097 | [19] 0 | [20] 0.01

THOC5 (UniProt Q13769)
inactive: [1] 0.008 | [2] 0.069 | [3] 0.075 | [4] -0.014 | [5] -0.036 | [6] 0.037 | [7] 0.003 | [8] -0.027 | [9] 0.024 | [10] 0.031 | [11] -0.07 | [12] 0.017 | [13] 0.032 | [14] -0.039 | [15] -0.001 | [16] -0.011 | [17] 0.001 | [18] -0.08 | [19] -0.005 | [20] -0.003

THUMPD3 (UniProt Q9BV44)
inactive: [1] -0.009 | [2] 0.037 | [3] 0.015 | [4] -0.087 | [5] 0.055 | [6] -0.003 | [7] 0.03 | [8] -0.004 | [9] 0.001 | [10] 0.037 | [11] -0.049 | [12] 0.189 | [13] 0.007 | [14] -0.029 | [15] -0.016 | [16] -0.03 | [17] 0.054 | [18] 0.01 | [19] -0.057 | [20] 0.074

TIMP1 (UniProt P01033)
inactive: [1] -0.104 | [2] -0.069 | [3] -0.003 | [4] -0.068 | [5] 0.048 | [6] 0.144 | [7] 0.06 | [8] -0.02 | [9] 0.024 | [10] 0.148 | [11] 0.009 | [12] -0.079 | [13] 0.084 | [14] -0.103 | [15] 0.153 | [16] -0.004 | [17] 0.065 | [18] -0.095 | [19] 0.052 | [20] -0.023

TELO2 (UniProt Q9Y4R8)
inactive: [1] -0.022 | [2] -0.055 | [3] 0.013 | [4] 0.233 | [6] -0.198 | [8] 0.176 | [9] 0.094 | [10] -0.136 | [11] 0.069 | [12] 0.158 | [13] -0.023 | [14] -0.041 | [15] -0.039 | [16] 0.039 | [17] -0.058 | [18] 0.046 | [19] -0.185 | [20] 0.103

TIPIN (UniProt Q9BVW5)
inactive: [1] -0.026 | [2] 0.114 | [3] 0.048 | [4] 0.008 | [5] 0.039 | [6] 0.03 | [7] 0.038 | [8] 0.057 | [9] -0.028 | [11] -0.07 | [12] 0.093 | [13] -0.013 | [14] 0.031 | [15] 0.026 | [16] -0.019 | [17] -0.07 | [19] 0.074 | [20] 0.036

TES (UniProt Q9UGI8)
inactive: [1] 0.033 | [2] -0.013 | [3] 0.05 | [4] -0.074 | [5] 0.013 | [6] 0.03 | [7] 0.015 | [8] -0.018 | [9] 0 | [10] 0.043 | [11] -0.058 | [12] 0.007 | [13] 0.021 | [14] -0.033 | [15] -0.014 | [16] 0.005 | [17] 0.014 | [18] 0.045 | [19] -0.019 | [20] 0.038

2 entries drawn at random from those above, as already listed:
TIMP1 (UniProt P01033)
inactive: [1] -0.104 | [2] -0.069 | [3] -0.003 | [4] -0.068 | [5] 0.048 | [6] 0.144 | [7] 0.06 | [8] -0.02 | [9] 0.024 | [10] 0.148 | [11] 0.009 | [12] -0.079 | [13] 0.084 | [14] -0.103 | [15] 0.153 | [16] -0.004 | [17] 0.065 | [18] -0.095 | [19] 0.052 | [20] -0.023

TES (UniProt Q9UGI8)
inactive: [1] 0.033 | [2] -0.013 | [3] 0.05 | [4] -0.074 | [5] 0.013 | [6] 0.03 | [7] 0.015 | [8] -0.018 | [9] 0 | [10] 0.043 | [11] -0.058 | [12] 0.007 | [13] 0.021 | [14] -0.033 | [15] -0.014 | [16] 0.005 | [17] 0.014 | [18] 0.045 | [19] -0.019 | [20] 0.038

(list continues)

TBL2 (UniProt Q9Y4P3)
inactive: [1] -0.067 | [2] 0.052 | [3] -0.314 | [4] 0.2 | [5] -0.088 | [6] 0.185 | [7] -0.034 | [8] 0.038 | [9] 0.154 | [10] -0.191 | [11] 0.156 | [12] 0.002 | [13] -0.084 | [14] 0 | [15] 0.014 | [16] 0.01 | [17] -0.139 | [18] -0.079 | [19] 0.017 | [20] -0.07

TIMM29 (UniProt Q9BSF4)
inactive: [1] 0.044 | [2] 0.08 | [3] 0.065 | [4] -0.033 | [6] -0.014 | [8] 0.02 | [9] 0.185 | [10] 0.033 | [11] -0.051 | [12] -0.077 | [13] -0.002 | [14] 0.069 | [15] -0.031 | [16] -0.039 | [17] -0.029 | [18] 0.057 | [19] -0.046 | [20] 0.064

TIMM8A (UniProt O60220)
inactive: [1] -0.036 | [2] 0.051 | [3] -0.069 | [4] -0.279 | [5] 0.28 | [6] 0.185 | [7] 0.046 | [8] -0.042 | [9] 0.006 | [10] 0.347 | [11] -0.021 | [12] -0.001 | [13] 0.024 | [14] 0.014 | [15] 0.102 | [16] -0.062 | [17] 0.165 | [18] 0.239 | [19] 0.123 | [20] 0.006
